In US20100028355A1:
No constants are given. Whether binding was seen depends on the method and setting. In cells and extracts the contact can be indirect. Some binding calls cover weakened binding; strength is not graded here. Tags and fused reporters may be left off the sequences shown.

Sequences of proteins named here, by UniProt entry; tags and fusion partners are left off. Residues count along the entry.
UniProt P35991, residues 2-659: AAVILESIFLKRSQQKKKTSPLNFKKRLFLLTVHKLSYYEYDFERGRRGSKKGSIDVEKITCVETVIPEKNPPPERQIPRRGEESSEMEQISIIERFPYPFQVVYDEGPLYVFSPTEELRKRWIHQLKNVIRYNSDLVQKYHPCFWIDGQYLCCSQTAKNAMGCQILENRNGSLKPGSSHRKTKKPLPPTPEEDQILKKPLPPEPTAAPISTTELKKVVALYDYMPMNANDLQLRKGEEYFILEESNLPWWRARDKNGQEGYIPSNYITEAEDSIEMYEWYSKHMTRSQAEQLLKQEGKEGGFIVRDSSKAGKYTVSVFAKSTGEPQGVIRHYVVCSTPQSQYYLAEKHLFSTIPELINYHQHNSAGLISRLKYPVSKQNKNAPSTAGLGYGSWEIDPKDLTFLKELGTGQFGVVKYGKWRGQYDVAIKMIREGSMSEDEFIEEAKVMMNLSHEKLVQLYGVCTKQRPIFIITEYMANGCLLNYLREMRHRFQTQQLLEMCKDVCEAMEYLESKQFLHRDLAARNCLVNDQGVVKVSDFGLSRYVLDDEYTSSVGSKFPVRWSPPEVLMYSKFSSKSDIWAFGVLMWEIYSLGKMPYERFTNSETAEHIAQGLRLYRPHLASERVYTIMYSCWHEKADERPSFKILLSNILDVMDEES

Tests used:
[1] = target: Bruton's tyrosine kinase (BTK) (mouse) (UniProt P35991); test: GST pull-down from homogenate of mouse hind limb hypoxic tissue, Western blot with anti-BTK antibody
[2] = target: Bruton's tyrosine kinase (BTK) (mouse) (UniProt P35991); test: GST pull-down from mouse bone marrow cell lysate, Western blot with anti-BTK antibody
[3] = target: Bruton's tyrosine kinase (BTK) (mouse) (UniProt P35991); test: GST pull-down from bone marrow cell lysate or ischemic tissue homogenate, Coomassie gel and anti-BTK/anti-GST blots (figure legend)

Measured: binding

B1: GST-HIMF fusion protein (protein, mouse, UniProt Q9EP95 24-111, looked up, not shown: a dimerising Fc or GST)
chain: DETIEIIVENKVKELLANPANYPSTVTKTLSCTSVKTMNRWASCPAGMTATGCACGFACGSWEIQSGDTCNCLCLLVDWTTARCCQLS
binds: all assays above
